From patent US20100284925A1, “Small Molecule Intervention for Obesity” (priority 2006, published 2010)

System: NIH-3T3/L1 preadipocytes
Assay: Differentiation of NIH-3T3/L1 preadipocytes into adipocytes (oil red O or Nile Red staining)
Assay type: cell-based
Conditions: 200 nM staurosporine added at differentiation induction with prieurianin
Protocol: FIG. 7. […] NIH-3T3/L1 cells were induced into differentiation and simultaneously treated with 2 μM of prieurianin. Differentiated cells were stained with oil red O—FIG. 7A, undifferentiated control.
Histogram represents A510 nm absorbance of oil red O stain isopropanol extracts from cells. Results are means±S.E. of triplicate experiments.
FIG. 19. Effects of bufalin on preadipocyte differentiation, and dedifferentiation/delipidation in adipo-cytes. NIH-3T3/L1 cells were induced into differentiation and simultaneously treated with either 1 μM of bufalin or 2 μM of prieurianin. Differentiated cells were stained with Nile Red. Alternatively, preadipocytes were induced into differentiation and five days following differentiation, cells were treated with either 1 μM of bufalin or 2 μM of prieurianin for an additional five days and followed by staining with Nile Red. Stained cells were evaluated by fluorescence microscopy.
To determine the effects of prieurianin on the differentiation of preadipocytes to adipocytes, the NIH-3T3/L1 preadipocytes were treated with or without the drug at the same time when induction of differentiation was initiated.

CN[C@@H]1C[C@H]2O[C@@](C)([C@@H]1OC)n1c3ccccc3c3c4c(c5c6ccccc6n2c5c31)C(=O)NC4 [staurosporine]
effect on inhibition of differentiation by prieurianin: partially reversed the inhibition by prieurianin
